# Data: the supplement of paper PMC6411743
# By UniProt entry, the sequences of proteins in these tests, tags left out. Where a name states a change or a piece, a line headed by the entry shows the natural chain unless it says otherwise.
# UniProt O15355: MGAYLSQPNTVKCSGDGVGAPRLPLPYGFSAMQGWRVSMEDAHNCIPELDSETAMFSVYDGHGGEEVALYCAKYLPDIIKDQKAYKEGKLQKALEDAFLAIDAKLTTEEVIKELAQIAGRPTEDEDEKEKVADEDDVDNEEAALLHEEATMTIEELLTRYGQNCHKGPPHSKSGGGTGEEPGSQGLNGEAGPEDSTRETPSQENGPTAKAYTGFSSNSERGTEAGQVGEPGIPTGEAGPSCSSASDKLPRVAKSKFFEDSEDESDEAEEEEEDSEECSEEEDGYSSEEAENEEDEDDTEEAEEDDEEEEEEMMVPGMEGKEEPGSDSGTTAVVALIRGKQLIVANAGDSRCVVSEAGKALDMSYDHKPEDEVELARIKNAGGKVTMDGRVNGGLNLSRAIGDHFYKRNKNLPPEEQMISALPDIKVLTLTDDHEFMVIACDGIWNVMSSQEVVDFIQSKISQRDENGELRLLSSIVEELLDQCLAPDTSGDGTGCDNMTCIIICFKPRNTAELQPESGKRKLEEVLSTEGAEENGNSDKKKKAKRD
# UniProt P0DPD6: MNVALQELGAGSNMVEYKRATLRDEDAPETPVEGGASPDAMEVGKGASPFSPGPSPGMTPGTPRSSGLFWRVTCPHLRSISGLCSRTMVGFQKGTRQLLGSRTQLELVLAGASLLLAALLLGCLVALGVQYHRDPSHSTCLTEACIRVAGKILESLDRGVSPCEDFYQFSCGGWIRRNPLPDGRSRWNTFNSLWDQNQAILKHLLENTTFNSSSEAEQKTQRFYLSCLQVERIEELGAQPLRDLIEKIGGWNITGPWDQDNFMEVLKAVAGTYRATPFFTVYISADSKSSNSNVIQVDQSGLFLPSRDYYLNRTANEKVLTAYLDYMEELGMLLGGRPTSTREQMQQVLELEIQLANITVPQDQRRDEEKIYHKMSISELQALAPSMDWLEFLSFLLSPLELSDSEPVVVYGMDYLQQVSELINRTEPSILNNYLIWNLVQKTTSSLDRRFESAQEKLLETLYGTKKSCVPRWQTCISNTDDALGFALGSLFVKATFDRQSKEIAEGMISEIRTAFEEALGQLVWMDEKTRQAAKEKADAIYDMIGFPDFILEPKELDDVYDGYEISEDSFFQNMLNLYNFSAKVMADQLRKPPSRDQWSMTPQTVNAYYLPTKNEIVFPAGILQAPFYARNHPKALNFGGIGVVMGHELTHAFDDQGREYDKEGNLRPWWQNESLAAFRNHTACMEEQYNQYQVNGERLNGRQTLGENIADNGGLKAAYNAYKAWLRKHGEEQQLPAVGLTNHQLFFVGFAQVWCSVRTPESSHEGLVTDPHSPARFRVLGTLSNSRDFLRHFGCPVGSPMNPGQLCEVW
# UniProt O14818: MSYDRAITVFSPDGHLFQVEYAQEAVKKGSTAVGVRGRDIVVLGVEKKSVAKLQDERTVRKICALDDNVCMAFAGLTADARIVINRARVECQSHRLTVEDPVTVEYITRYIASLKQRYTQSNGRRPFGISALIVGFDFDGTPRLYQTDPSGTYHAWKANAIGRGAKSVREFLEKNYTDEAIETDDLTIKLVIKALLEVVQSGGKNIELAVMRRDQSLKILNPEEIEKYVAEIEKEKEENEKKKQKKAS
# UniProt O00178: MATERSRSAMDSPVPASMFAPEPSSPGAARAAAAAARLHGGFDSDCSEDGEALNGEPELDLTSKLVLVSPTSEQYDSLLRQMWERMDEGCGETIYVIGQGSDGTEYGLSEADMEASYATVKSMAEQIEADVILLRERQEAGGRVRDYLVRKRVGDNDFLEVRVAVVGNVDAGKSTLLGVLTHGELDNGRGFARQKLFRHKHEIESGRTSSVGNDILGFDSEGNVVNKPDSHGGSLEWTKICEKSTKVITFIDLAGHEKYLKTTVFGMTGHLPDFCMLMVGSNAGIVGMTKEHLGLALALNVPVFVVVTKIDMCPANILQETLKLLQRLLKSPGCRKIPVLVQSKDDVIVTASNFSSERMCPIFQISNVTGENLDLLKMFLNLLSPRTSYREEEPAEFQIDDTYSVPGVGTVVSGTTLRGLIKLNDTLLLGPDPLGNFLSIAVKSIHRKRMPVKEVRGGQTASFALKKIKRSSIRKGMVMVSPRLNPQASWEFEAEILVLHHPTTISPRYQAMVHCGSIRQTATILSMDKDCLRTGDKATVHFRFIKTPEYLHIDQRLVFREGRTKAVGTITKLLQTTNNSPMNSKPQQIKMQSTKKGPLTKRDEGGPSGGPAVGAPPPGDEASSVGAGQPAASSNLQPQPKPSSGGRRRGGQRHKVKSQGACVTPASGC
# UniProt Q5UCC4: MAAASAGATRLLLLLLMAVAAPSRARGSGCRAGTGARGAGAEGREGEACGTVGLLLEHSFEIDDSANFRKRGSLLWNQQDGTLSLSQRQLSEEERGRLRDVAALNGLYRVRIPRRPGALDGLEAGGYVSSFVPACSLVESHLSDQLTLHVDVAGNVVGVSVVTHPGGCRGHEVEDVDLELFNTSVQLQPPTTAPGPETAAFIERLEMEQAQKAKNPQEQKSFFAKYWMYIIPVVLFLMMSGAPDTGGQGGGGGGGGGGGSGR
# UniProt O15400: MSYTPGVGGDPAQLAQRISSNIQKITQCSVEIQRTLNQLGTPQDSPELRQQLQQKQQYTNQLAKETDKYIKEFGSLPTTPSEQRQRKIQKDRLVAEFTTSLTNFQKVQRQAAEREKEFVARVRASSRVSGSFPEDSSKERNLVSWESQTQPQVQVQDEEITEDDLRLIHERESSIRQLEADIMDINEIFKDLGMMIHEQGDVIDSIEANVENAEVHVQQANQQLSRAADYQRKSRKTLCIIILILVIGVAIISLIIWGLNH
# UniProt O14757: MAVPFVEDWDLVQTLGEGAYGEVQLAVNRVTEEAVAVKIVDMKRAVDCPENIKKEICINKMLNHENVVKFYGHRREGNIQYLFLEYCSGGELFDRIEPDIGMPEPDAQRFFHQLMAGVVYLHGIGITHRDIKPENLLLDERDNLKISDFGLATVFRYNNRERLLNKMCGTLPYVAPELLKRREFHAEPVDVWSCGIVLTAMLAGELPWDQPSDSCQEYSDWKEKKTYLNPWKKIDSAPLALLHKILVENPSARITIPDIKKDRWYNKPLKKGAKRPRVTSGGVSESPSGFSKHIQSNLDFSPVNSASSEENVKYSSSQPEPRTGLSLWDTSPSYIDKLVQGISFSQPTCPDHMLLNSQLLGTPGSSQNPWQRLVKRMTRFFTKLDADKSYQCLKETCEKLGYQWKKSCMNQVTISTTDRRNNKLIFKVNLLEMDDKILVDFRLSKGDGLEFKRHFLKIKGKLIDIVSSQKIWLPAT
# UniProt O15155: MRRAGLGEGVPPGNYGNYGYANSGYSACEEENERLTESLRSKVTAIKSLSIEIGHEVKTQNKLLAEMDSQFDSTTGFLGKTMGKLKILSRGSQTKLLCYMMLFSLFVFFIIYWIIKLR
# UniProt O14497, whole entry: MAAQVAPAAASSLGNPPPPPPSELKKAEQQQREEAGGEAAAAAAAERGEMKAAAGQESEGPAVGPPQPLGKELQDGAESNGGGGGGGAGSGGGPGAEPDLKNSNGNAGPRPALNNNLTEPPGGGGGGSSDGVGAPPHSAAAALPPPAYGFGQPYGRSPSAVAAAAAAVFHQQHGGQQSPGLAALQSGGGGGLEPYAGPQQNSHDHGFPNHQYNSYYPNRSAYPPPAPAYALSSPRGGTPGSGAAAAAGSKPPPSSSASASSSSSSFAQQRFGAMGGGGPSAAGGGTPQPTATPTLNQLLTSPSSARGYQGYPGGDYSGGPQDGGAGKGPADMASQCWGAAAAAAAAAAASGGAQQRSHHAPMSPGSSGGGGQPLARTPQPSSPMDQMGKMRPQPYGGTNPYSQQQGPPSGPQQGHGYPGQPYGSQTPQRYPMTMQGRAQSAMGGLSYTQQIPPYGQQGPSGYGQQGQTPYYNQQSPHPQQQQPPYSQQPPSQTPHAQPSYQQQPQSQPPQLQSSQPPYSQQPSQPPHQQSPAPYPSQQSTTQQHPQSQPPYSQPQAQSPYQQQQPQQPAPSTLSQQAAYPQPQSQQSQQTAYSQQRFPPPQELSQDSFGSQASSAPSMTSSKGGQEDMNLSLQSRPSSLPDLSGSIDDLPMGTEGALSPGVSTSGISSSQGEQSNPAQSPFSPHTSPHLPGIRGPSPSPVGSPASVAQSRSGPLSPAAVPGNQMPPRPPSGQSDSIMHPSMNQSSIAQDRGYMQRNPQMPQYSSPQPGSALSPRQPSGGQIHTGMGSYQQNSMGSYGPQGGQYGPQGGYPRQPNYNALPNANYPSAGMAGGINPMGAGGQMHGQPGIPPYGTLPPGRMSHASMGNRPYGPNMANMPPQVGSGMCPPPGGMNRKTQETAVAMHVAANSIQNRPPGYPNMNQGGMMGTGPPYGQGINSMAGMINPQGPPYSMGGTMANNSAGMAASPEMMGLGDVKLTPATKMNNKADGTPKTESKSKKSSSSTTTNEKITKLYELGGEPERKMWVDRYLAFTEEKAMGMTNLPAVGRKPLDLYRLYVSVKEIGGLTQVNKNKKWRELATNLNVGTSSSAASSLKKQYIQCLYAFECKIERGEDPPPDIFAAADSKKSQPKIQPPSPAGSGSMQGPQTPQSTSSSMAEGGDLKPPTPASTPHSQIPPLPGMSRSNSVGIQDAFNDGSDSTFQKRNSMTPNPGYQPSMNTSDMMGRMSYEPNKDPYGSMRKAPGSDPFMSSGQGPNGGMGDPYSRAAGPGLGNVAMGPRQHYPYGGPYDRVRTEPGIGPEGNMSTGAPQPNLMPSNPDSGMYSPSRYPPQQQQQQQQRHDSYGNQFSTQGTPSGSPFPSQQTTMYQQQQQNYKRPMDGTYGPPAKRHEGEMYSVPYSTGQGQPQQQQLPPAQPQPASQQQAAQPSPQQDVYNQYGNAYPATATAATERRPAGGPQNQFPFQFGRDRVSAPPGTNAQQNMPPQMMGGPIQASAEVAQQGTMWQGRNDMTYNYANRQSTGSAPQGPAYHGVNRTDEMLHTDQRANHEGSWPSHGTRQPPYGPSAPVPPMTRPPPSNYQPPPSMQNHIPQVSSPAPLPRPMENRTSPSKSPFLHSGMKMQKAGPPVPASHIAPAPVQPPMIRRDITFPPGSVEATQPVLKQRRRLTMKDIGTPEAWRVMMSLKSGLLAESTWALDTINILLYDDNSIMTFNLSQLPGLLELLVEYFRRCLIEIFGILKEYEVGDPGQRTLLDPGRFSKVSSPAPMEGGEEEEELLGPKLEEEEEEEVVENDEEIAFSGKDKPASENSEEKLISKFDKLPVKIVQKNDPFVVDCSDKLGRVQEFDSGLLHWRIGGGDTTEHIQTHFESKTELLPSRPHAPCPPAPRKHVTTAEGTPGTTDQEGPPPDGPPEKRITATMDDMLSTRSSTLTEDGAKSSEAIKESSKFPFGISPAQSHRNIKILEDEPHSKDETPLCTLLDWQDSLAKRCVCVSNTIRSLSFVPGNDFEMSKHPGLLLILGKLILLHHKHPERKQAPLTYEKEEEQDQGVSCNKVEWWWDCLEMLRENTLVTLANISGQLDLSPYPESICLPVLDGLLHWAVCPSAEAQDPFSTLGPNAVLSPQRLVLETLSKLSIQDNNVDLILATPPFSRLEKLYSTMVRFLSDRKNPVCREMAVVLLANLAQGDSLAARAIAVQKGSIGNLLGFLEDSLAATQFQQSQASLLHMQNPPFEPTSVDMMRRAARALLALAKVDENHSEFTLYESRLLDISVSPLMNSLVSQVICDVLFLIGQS
# UniProt O00629, whole entry: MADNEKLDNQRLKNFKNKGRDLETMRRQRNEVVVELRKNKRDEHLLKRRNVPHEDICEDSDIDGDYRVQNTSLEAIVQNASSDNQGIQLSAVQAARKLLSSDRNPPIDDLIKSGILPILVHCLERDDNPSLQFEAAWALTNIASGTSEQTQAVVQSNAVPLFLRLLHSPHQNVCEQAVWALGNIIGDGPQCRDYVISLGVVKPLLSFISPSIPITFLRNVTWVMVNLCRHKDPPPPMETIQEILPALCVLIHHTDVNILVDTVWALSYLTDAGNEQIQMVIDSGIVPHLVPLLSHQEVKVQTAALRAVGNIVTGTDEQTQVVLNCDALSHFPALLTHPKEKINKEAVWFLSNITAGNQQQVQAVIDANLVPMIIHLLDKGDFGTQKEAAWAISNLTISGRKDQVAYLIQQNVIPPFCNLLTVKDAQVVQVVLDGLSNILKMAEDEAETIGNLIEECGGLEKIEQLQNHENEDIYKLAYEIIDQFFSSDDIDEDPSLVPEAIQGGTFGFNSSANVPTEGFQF
# UniProt O43502: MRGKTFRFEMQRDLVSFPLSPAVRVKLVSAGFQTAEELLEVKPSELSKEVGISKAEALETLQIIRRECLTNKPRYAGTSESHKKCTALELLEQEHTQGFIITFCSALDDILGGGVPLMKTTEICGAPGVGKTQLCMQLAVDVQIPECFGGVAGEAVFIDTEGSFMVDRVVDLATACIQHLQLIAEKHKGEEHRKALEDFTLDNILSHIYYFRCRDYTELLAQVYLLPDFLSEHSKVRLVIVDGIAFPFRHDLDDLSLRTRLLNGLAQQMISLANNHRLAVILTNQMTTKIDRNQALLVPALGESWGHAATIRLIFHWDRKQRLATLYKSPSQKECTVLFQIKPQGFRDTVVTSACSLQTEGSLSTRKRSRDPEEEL
# ± gives the standard deviation of the averaged measurements. The entries are a selection whose mix differs from that of the whole data set.
# Compound: Nc1ncnc2c1ncn2[C@@H]1O[C@H](COP(=O)(O)OP(=O)(O)OP(=O)(O)O)[C@@H](O)[C@H]1O [adenosine triphosphate]
# Assay: NP40-soluble protein abundance relative to vehicle (solubility fold change) (ratio); higher = more soluble protein in presence of ATP
# Outline: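 Eight concentrations, 0.1 to 10 mM, were tested on Jurkat crude lysate for 10 min at room temperature and then 3 min at 37 °C, in three independent experiments. The lysate was solubilised with 0.8% NP40 and benzonase, ultracentrifuged, and the supernatant TMT-labelled for LC-MS/MS. Each value is the fold change against the detergent-processed vehicle in its own replicate, from vsn-normalised intensities.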
Target,NP40-soluble protein abundance (concentration: 1mM),NP40-soluble protein abundance (concentration: 2mM),NP40-soluble protein abundance (concentration: 4mM),NP40-soluble protein abundance (concentration: 6mM),NP40-soluble protein abundance (concentration: 8mM),NP40-soluble protein abundance (concentration: 10mM)
PFAS (UniProt O15067),0.991 ± 0.012,0.983 ± 0.014,0.98 ± 0.0047,0.951 ± 0.035,0.968 ± 0.011,0.964 ± 0.034
UniProt O00267 and related entries,1.03 ± 0.025,1.03 ± 0.03,0.9963 ± 0.0094,0.977 ± 0.034,0.982 ± 0.012,0.994 ± 0.014
UniProt O60337 and related entries,1.07 ± 0.073,1.1 ± 0.075,1.03 ± 0.046,1.05 ± 0.048,1.11 ± 0.12,1.1 ± 0.2
UniProt O00499-2|O00499-6|O00499-4|O00499-7|O00499-9,0.985 ± 0.067,0.988 ± 0.039,0.959 ± 0.029,1.02 ± 0.034,0.9248 ± 0.0063,0.919 ± 0.041
TIMM44 (UniProt O43615),0.95 ± 0.034,0.954 ± 0.032,0.946 ± 0.028,0.954 ± 0.041,0.954 ± 0.043,0.946 ± 0.042
PAPSS1 (UniProt O43252),0.989 ± 0.059,0.988 ± 0.043,0.959 ± 0.044,0.949 ± 0.054,0.987 ± 0.029,0.948 ± 0.04
PPM1G (UniProt O15355),0.947 ± 0.05,0.947 ± 0.032,0.901 ± 0.022,0.981 ± 0.038,0.888 ± 0.033,0.9013 ± 0.0062
SCO2 (UniProt O43819),0.984 ± 0.064,0.966 ± 0.02,0.979 ± 0.021,0.96 ± 0.033,0.992 ± 0.061,0.983 ± 0.036
STX6 (UniProt O43752),0.973 ± 0.049,0.97 ± 0.051,0.989 ± 0.032,0.943 ± 0.042,0.962 ± 0.01,0.944 ± 0.044
O60344 and related entries (UniProt P0DPD6),0.949 ± 0.06,0.96 ± 0.11,1.11 ± 0.17,1.05 ± 0.2,1.02 ± 0.097,1.01 ± 0.14
UniProt O43504,1 ± 0.11,0.941 ± 0.098,0.966 ± 0.088,1.04 ± 0.077,0.962 ± 0.031,0.878 ± 0.11
AGPS (UniProt O00116),0.998 ± 0.047,1.01 ± 0.053,0.973 ± 0.023,0.962 ± 0.071,0.992 ± 0.017,0.972 ± 0.059
M0R3D4 and related entries (UniProt Q9UI14),0.981 ± 0.048,1.01 ± 0.022,1.01 ± 0.014,0.948 ± 0.051,0.995 ± 0.058,0.984 ± 0.095
HIP1 (UniProt O00291),1.01 ± 0.028,1.07 ± 0.037,1.11 ± 0.073,1.15 ± 0.04,1.11 ± 0.065,1.18 ± 0.02
UniProt O14593 and related entries,1.06 ± 0.075,0.953 ± 0.11,0.985 ± 0.17,1 ± 0.13,0.987 ± 0.032,1.01 ± 0.057
UniProt O00628 and related entries,1.07 ± 0.031,1.03 ± 0.038,1.13 ± 0.13,0.982 ± 0.14,1.1 ± 0.062,1.09 ± 0.11
UniProt O43439-5|O43439 and related entries,0.983 ± 0.075,0.97 ± 0.023,1.03 ± 0.056,1.02 ± 0.12,0.964 ± 0.018,0.997 ± 0.036
UniProt O43829,1.05 ± 0.041,1.06 ± 0.034,1.02 ± 0.08,1.07 ± 0.026,1.04 ± 0.043,1.06 ± 0.026
PSMA7 (UniProt O14818),0.948 ± 0.049,0.874 ± 0.0094,0.854 ± 0.022,0.881 ± 0.084,0.872 ± 0.057,0.866 ± 0.029
UniProt O14965 and related entries,1.07 ± 0.091,1.06 ± 0.08,1.12 ± 0.054,1.13 ± 0.12,1.1 ± 0.077,1.17 ± 0.056

# Full records as entered above.
# UniProt O14965 and related entries in the list: NP40-soluble protein abundance (concentration: 1mM): 1.07 ± 0.091; NP40-soluble protein abundance (concentration: 2mM): 1.06 ± 0.08; NP40-soluble protein abundance (concentration: 4mM): 1.12 ± 0.054; NP40-soluble protein abundance (concentration: 6mM): 1.13 ± 0.12; NP40-soluble protein abundance (concentration: 8mM): 1.1 ± 0.077; NP40-soluble protein abundance (concentration: 10mM): 1.17 ± 0.056
# UniProt O43504 in the list: NP40-soluble protein abundance (concentration: 1mM): 1 ± 0.11; NP40-soluble protein abundance (concentration: 2mM): 0.941 ± 0.098; NP40-soluble protein abundance (concentration: 4mM): 0.966 ± 0.088; NP40-soluble protein abundance (concentration: 6mM): 1.04 ± 0.077; NP40-soluble protein abundance (concentration: 8mM): 0.962 ± 0.031; NP40-soluble protein abundance (concentration: 10mM): 0.878 ± 0.11
# UniProt O60337 and related entries in the list: NP40-soluble protein abundance (concentration: 1mM): 1.07 ± 0.073; NP40-soluble protein abundance (concentration: 2mM): 1.1 ± 0.075; NP40-soluble protein abundance (concentration: 4mM): 1.03 ± 0.046; NP40-soluble protein abundance (concentration: 6mM): 1.05 ± 0.048; NP40-soluble protein abundance (concentration: 8mM): 1.11 ± 0.12; NP40-soluble protein abundance (concentration: 10mM): 1.1 ± 0.2
# AGPS (UniProt O00116) in the list: NP40-soluble protein abundance (concentration: 1mM): 0.998 ± 0.047; NP40-soluble protein abundance (concentration: 2mM): 1.01 ± 0.053; NP40-soluble protein abundance (concentration: 4mM): 0.973 ± 0.023; NP40-soluble protein abundance (concentration: 6mM): 0.962 ± 0.071; NP40-soluble protein abundance (concentration: 8mM): 0.992 ± 0.017; NP40-soluble protein abundance (concentration: 10mM): 0.972 ± 0.059

# More records:

Target,NP40-soluble protein abundance (concentration: 1mM),NP40-soluble protein abundance (concentration: 2mM),NP40-soluble protein abundance (concentration: 4mM),NP40-soluble protein abundance (concentration: 6mM),NP40-soluble protein abundance (concentration: 8mM),NP40-soluble protein abundance (concentration: 10mM)
UniProt O43747 and related entries,0.938 ± 0.071,0.95 ± 0.083,0.917 ± 0.027,0.864 ± 0.087,0.928 ± 0.017,0.945 ± 0.034
UniProt O43427 and related entries,1.09 ± 0.14,1.05 ± 0.058,1.05 ± 0.061,0.962 ± 0.097,1.1 ± 0.048,1.06 ± 0.071
ZBTB24 (UniProt O43167),1.01 ± 0.062,1.01 ± 0.03,1.05 ± 0.04,0.961 ± 0.018,0.979 ± 0.048,0.962 ± 0.013
UniProt O43665 and related entries,0.915 ± 0.089,0.869 ± 0.09,0.893 ± 0.014,0.9374 ± 0.0081,0.919 ± 0.028,0.803 ± 0.13
XPO1 (UniProt O14980),0.987 ± 0.11,0.977 ± 0.076,0.947 ± 0.065,0.905 ± 0.1,0.973 ± 0.046,0.961 ± 0.063
GTPBP1 (UniProt O00178),1.06 ± 0.035,1.06 ± 0.019,1.06 ± 0.032,1.03 ± 0.047,1.06 ± 0.018,1.05 ± 0.041
M0R2A0 and related entries (UniProt Q5UCC4),0.983 ± 0.058,0.979 ± 0.052,0.923 ± 0.072,0.963 ± 0.072,0.942 ± 0.092,0.964 ± 0.08
UniProt O00471 and related entries,0.975 ± 0.022,0.977 ± 0.013,0.9468 ± 0.0071,0.951 ± 0.012,0.963 ± 0.016,0.978 ± 0.017
UniProt O15400 and related entries,0.912 ± 0.067,0.938 ± 0.028,0.944 ± 0.014,0.983 ± 0.033,0.909 ± 0.049,0.874 ± 0.067
UniProt O00716-2,0.975 ± 0.049,1.02 ± 0.023,0.988 ± 0.076,1.06 ± 0.02,0.971 ± 0.086,1.03 ± 0.072
BCAT2 (UniProt O15382),1.02 ± 0.11,0.981 ± 0.088,0.986 ± 0.06,0.928 ± 0.15,1.02 ± 0.048,0.977 ± 0.067
OPLAH (UniProt O14841),1.03 ± 0.022,1 ± 0.099,1 ± 0.047,0.984 ± 0.073,0.989 ± 0.045,0.988 ± 0.029
UniProt O43278 and related entries,0.966 ± 0.04,0.972 ± 0.04,0.974 ± 0.027,0.961 ± 0.02,0.945 ± 0.05,0.932 ± 0.038
UniProt O14757,0.997 ± 0.056,0.983 ± 0.044,0.983 ± 0.027,0.929 ± 0.077,0.973 ± 0.031,0.981 ± 0.074
UniProt O14763 and related entries,1.04 ± 0.054,1.03 ± 0.14,0.988 ± 0.041,0.9493 ± 0.0016,0.814 ± 0.062,0.898 ± 0.041
BET1 (UniProt O15155),1 ± 0.084,0.98 ± 0.066,0.998 ± 0.035,0.946 ± 0.09,0.992 ± 0.082,0.972 ± 0.053
ARID1A (UniProt O14497),1.02 ± 0.053,0.992 ± 0.05,0.994 ± 0.071,1.02 ± 0.11,0.986 ± 0.058,0.993 ± 0.052
AIP (UniProt O00170),0.961 ± 0.052,0.959 ± 0.033,0.94 ± 0.063,0.94 ± 0.073,0.955 ± 0.038,0.933 ± 0.04
GNPAT (UniProt O15228),1.02 ± 0.13,1.02 ± 0.089,0.967 ± 0.084,0.933 ± 0.12,0.981 ± 0.075,0.964 ± 0.048
HGS (UniProt O14964),0.9266 ± 0.0021,0.938 ± 0.019,0.91 ± 0.0095,0.934 ± 0.043,0.904 ± 0.035,0.923 ± 0.029

Target,NP40-soluble protein abundance (concentration: 1mM),NP40-soluble protein abundance (concentration: 2mM),NP40-soluble protein abundance (concentration: 4mM),NP40-soluble protein abundance (concentration: 6mM),NP40-soluble protein abundance (concentration: 8mM),NP40-soluble protein abundance (concentration: 10mM)
UniProt O60343 and related entries,1.01 ± 0.029,0.968 ± 0.021,0.966 ± 0.021,0.945 ± 0.044,0.953 ± 0.022,0.959 ± 0.054
DAPK3 (UniProt O43293),1.09 ± 0.075,1.13 ± 0.081,1.14 ± 0.051,1.21 ± 0.07,1.161 ± 0.0084,1.23 ± 0.073
HTATSF1 (UniProt O43719),0.884 ± 0.022,0.859 ± 0.012,0.796 ± 0.015,0.847 ± 0.013,0.7503 ± 0.0064,0.746 ± 0.013
MPHOSPH10 (UniProt O00566),0.997 ± 0.058,1.03 ± 0.024,1.02 ± 0.025,1.13 ± 0.062,1.06 ± 0.011,1.05 ± 0.078
PIK3R2 (UniProt O00459),1.12 ± 0.24,1.08 ± 0.2,0.996 ± 0.12,1.15 ± 0.11,0.943 ± 0.16,0.99 ± 0.041
M0R2B7 and related entries (UniProt P28340),1.02 ± 0.097,0.99 ± 0.071,0.992 ± 0.052,0.929 ± 0.096,1.03 ± 0.036,0.989 ± 0.04
UniProt O43561-3|O43561 and related entries,0.845 ± 0.12,0.841 ± 0.082,0.876 ± 0.036,0.834 ± 0.13,0.86 ± 0.041,0.782 ± 0.078
UniProt O43670-2|X6R4W8,1.1 ± 0.036,1.13 ± 0.034,1.12 ± 0.037,1.19 ± 0.08,1.1648 ± 0.0011,1.177 ± 0.005
KRIT1 (UniProt O00522),1.05 ± 0.06,1.04 ± 0.022,1.09 ± 0.1,1.09 ± 0.028,1.09 ± 0.077,1.11 ± 0.13
UniProt O14787-2,0.909 ± 0.044,0.965 ± 0.063,0.919 ± 0.024,0.859 ± 0.094,0.879 ± 0.028,0.936 ± 0.019
UniProt O15111,1.04 ± 0.097,1.04 ± 0.079,1.04 ± 0.091,0.924 ± 0.11,1.02 ± 0.052,1.05 ± 0.059
KPNA4 (UniProt O00629),1.05 ± 0.059,1.05 ± 0.049,1.04 ± 0.012,1.08 ± 0.02,1.05 ± 0.093,1.02 ± 0.039
SGTA (UniProt O43765),0.887 ± 0.14,0.891 ± 0.11,0.847 ± 0.072,0.909 ± 0.13,0.846 ± 0.047,0.748 ± 0.13
CASC3 (UniProt O15234),0.994 ± 0.098,1 ± 0.056,1.01 ± 0.073,1.06 ± 0.096,1.05 ± 0.045,1.04 ± 0.017
KPNA3 (UniProt O00505),1.05 ± 0.074,1.07 ± 0.058,1.01 ± 0.066,1.07 ± 0.069,1.02 ± 0.11,1.03 ± 0.042
M0R0F0 and related entries (UniProt P46782),0.898 ± 0.066,0.886 ± 0.11,0.837 ± 0.091,0.825 ± 0.1,0.757 ± 0.073,0.812 ± 0.083
XPOT (UniProt O43592),0.992 ± 0.092,0.981 ± 0.064,0.964 ± 0.052,0.889 ± 0.11,0.945 ± 0.045,0.983 ± 0.066
UniProt O43164 and related entries,0.919 ± 0.057,0.955 ± 0.045,0.949 ± 0.068,0.951 ± 0.068,0.917 ± 0.05,0.995 ± 0.065
RAD51C (UniProt O43502),0.999 ± 0.099,1.01 ± 0.081,1.12 ± 0.061,1.05 ± 0.019,1.09 ± 0.025,0.973 ± 0.043
ARPC2 (UniProt O15144),1.05 ± 0.078,1.02 ± 0.081,0.969 ± 0.074,0.975 ± 0.12,1.02 ± 0.066,0.984 ± 0.061
